Results on 1 molecule are retold here after patent US20250388684A1.

Chains of the proteins cited; added tags and fusions are not shown. Lines headed by an entry give the natural chain unless they say otherwise; changes in a name come on top. A line that says so, or that is headed by a name, gives the form on record, which may keep a tag or linker.
cynomolgus monkey CCR8 (G7NYJ2, form named): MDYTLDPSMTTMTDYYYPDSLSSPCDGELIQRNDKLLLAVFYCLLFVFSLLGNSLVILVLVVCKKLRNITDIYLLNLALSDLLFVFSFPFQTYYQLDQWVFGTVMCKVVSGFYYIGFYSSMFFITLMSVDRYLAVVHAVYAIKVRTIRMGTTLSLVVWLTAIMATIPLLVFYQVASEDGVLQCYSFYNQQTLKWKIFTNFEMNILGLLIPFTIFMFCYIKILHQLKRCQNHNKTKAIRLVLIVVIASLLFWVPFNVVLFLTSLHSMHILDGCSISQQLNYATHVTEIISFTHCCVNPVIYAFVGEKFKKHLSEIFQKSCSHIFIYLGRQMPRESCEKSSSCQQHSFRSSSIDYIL

For the assay, the target named is cynomolgus monkey CCR8 (cynomolgus monkey) (UniProt G7NYJ2). The assay is described as follows: FACS on HEK293T-c.CCR8 cells, mouse antibody.

No constants are given. Whether binding was seen depends on the method and setting. Some entries that bind do so weakly or less than the wild type.

B1: 13F3H6 (anti-human CCR8 mouse monoclonal antibody) (antibody, V domains shown)
VH: EVQLVESGGGLVRPKGSLKFSCAASGFTFNAYAMNWVRQAPGKGLEWVARIRTKSNNYATYYADSVKDRFTISRDDSENMLYLQMNNLKTEDTAIYYCVRHKKVREGYAMDYWGQGTSVTVSS
VL: DIVLTQSPASLVLSLGQRATISCRASKSVSTSGYTYMHWYQQKPGQPPKLLIYLASNLESGVPARFSGSGSGTDFTLNIHPVEEEDAATYYCQHSRELPFTFGSGTKLEIK
For B1, the binding entry is “binds”.
